From publication doi:10.1101/2025.05.13.653872
Results are given in words; binding and its absence hold for the method and conditions named. In cells and extracts the contact can be indirect. A yes stands for co-enrichment or nearness to the bait. Other partners may have been found. Tags and fused reporters may be left off the sequences shown.

Target: 3xFlag-PcrP overexpressed in P. aeruginosa ΔpcrP (P. aeruginosa PAO1) (UniProt Q9I040)
Experiment: affinity purification with mass spectrometry; 3xFlag-PcrP overexpressed in ΔpcrP grown in BMM8 (high Pi, 580 μM) or BMMH8 (low Pi, 50 μM) at 0 or 5 mM Ca2+; lysate (1 mg/ml) on ANTI-FLAG M2 magnetic beads, 2 h at 4°C, washed with 10 mM Tris-HCl pH 7.5; LC-MS/MS; ΔpcrP as negative control

B1: PA1681 chorismate synthase (protein, UniProt Q9I344 1-363)
chain: MSGNTYGKLFTVTTAGESHGPALVAIVDGCPPGLELSARDLQRDLDRRKPGTSRHTTQRQEADEVEILSGVFEGKTTGTPIGLLIRNTDQKSKDYSAIKDLFRPAHADYTYHHKYGVRDYRGGGRSSARETAMRVAAGAIAKKYLAGLGIQVRGYMSQLGPIEIPFRSWDSVEQNAFFSPDPDKVPELEAYMDQLRRDQDSVGAKITVVAEGVPPGLGEPIFDRLDAELAHALMSINAVKGVEIGAGFASIAQRGTEHRDELTPQGFLSNNAGGILGGISSGQPIVAHLALKPTSSITTPGRSIDTAGEPVDMITKGRHDPCVGIRATPIAEAMMAIVLLDQLLRQRGQNADVRVDTPVLPQL
B1 was tested, and the binding was “binds”.

B2: PA3729 conserved hypothetical protein (protein, UniProt Q9HXR3 1-688)
chain: MDMTSLMPLLLGVGLVVLLVVGLLALFKAFYIKVPQGTALIVNDMSSTPKVHFTGALVYPVIHLKEFMRISLITLEVDRRGKDGLICRDNMRADITVAFYLRVNETQDDVLKVAKAIGVDRASDRSAVNELFNAKFSEALKTVGKQFDFVQLFENRQDFRDRIIEVIGNDLNGYVLEDVAIDYLEQTAKNSLDPSNILDAEGIRKITELTATQNVITNELERNEELAIKKKNVETREAALALERQQADAEARQKREIETIRAREEAETARVKEEERLKAEQARIQAQQEIDVRTENHQREVEVAQQNRQRAVVIEVEKVTRAKDLEIVAREREVELQKIEKEKALEEQRKNIANVIRERVAVEKTVAQEEERIKEVREVSEAERVKQVILLQAQAEAEQELVRQVKQAEADEARSKHKAVEINTMAQAELEAASKQAEAKKRLAEGIEAERAAPGLADARVLEVTAAAKEKDGLAAARVRAEQLIAEARGDEERGLADARVLEAQAAAKEKDGLAEAKVLAEKLGAQARGEEQLGAAKAKATKDQGSAEAEVLLQRLNAEAEGLGKKFGALDALSDSARQHEEFRMQLEKSFEEAMAAIAANKDIAKDQAEVLATALGKANIEIVGGEGDFFNSFAKSLSVGKAIEGVVGKSPVVQDVLARLLNGRGAAAAVMPERKSGHENEPAAEV
With B2 the binding was “binds”.

B3: PA5015 pyruvate dehydrogenase (protein, UniProt Q59637 1-882)
chain: MQDLDPVETQEWLDALESVLDREGEDRAHYLMTRMGELASRSGTQLPYAITTPYRNTIPVTHEARMPGDLFMERRIRSLVRWNALAMVMRANKHDPDLGGHISTFASSATLYDIGFNYFFQAPTDEHGGDLVFFQGHASPGVYARAFLEGRISEEQLENFRQEVDGNGLSSYPHPWLMPDFWQFPTVSMGLGPIQAIYQARFMKYLESRGFIPAGKQKVWCFMGDGECDEPESLGAISLAGREKLDNLIFVINCNLQRLDGPVRGNAKIIQELEGVFRGAEWNVNKVIWGRFWDPLFAKDTAGLLQQRMDEVIDGEYQNYKAKDGAYVREHFFGARPELLEMVKDLSDEEIWKLNRGGHDPYKVYAAYHQAVNHKGQPTVILAKTIKGYGTGSGEAKNIAHNVKKVDVDSLRAFRDKFDIPVKDADLEKLPFYKPEEGSAEAKYLAERRAALGGFMPVRRQKSMSVPVPPLETLKAMLDGSGDREISTTMAFVRIISQLVKDKELGPRIVPIVPDEARTFGMEGMFRQLGIYSSVGQLYEPVDKDQVMFYREDKKGQILEEGINEAGAMSSWIAAGTSYSTHNQPMLPFYIFYSMFGFQRIGDLAWAAGDSRAHGFLIGGTAGRTTLNGEGLQHEDGHSHLLASTIPNCRTYDPTYAYELAVIIREGSRQMIEEQQDIFYYITVMNENYVQPAMPKGAEEGIIKGMYLLEEDKKEAAHHVQLLGSGTILREVEEAAKLLRNDFGIGADVWSVPSFNELRRDGLAVERWNRLHPGQKPKQSYVEECLGGRRGPVIASTDYMKLYAEQIRQWVPSKEYKVLGTDGFGRSDSRKKLRNFFEVDRHWVVLAALEALADRGDIEPKVVAEAIAKYGIDPEKRNPLDC
In the case of B3, the binding is reported as “binds”.

B4: PA3831 leucine aminopeptidase (protein, UniProt O68822 1-495)
chain: MEFLVKSVRPETLKTATLVLAVGEGRKLGASAKAVDDATGGAISAVLKRGDLAGKVGQTLLLQSLPNLKAERVLLVGAGKERELGDRQYRKLASAVLSTLKGLAGADAALALGDLAVKGRDAHAKARLLVETLADGLYVFDRYKSQKAEPLKLKKLTLLADKADSAAVEQGSKEAQAIANGMALTRDLGNLPPNVCHPTFLGEQAKGLAKEFKGLKVEVLDEKKLRELGMGSFLAVAQGSDQPPRLIVLQYNGAKKDQAPHVLVGKGITFDTGGISLKPGLGMDEMKFDMCGAASVFGTFRAVLELQLPINLVGLLACAENMPSGGATRPGDIVTTMSGQTVEILNTDAEGRLVLCDALTYAERFKPQSVIDIATLTGACIVALGSNTSGLMGNNEALVRQLLKAGEFADDRAWQLPLFDEYQEQLDSPFADIANIGGPKAGTITAGCFLSRFAKKYHWAHLDIAGTAWISGGKDKGATGRPVPLLTQYLLERAK
B4 was tested, and the binding was “binds”.

B5: PA3654 uridylate kinase (protein, UniProt O82852 1-245)
chain: MAQQLSARQPRYKRILLKLSGEALMGSEEFGIDPKVLDRMALEIGQLVGIGVQVGLVIGGGNLFRGAALSAAGMDRVTGDHMGMLATVMNGLAMRDALERSNIPALVMSAISMVGVTDHYDRRKAMRHLGGGEVVIFSAGTGNPFFTTDSAACLRAIEIDADVVLKATKVDGVYTADPFKDPNAEKFERLTYDEVLDRKLGVMDLTAICLCRDQNMPLRVFNMNKPGALLNIVVGGAEGTLIEEG
For B5, the binding was “binds”.

B6: PA4352 conserved hypothetical protein (protein, UniProt Q9HW49 1-286)
chain: MKRILVATDLSSRSELAVMRAAALAKARNAELTVLNVLDDDQPPVLIAPQRLAIANLLEVNGQALKERLGVESKAIVRVGDPVVVINAVAEEIGADLLVMGAHRHTPLRDLFIGTTLERVVRNAKIPVLRAAGAPEEEYRRVLLALDFSPTSTRAVQMAGQLGFLDAASLTALHAFEPFAKGMMRYSGIKEDRVEHYVDQEELKANVELRDYVAGLGLGREDIQLRVGEGLPINVIMTEVRRQAPQLTVLGTQGLTGFRRALIGSVAEAALGDLPCDVLAVPPKRD
In the case of B6, the binding is reported as “binds”.

B7: PA4992 hypothetical protein (protein, UniProt Q9HUH3 1-270)
chain: MIRDTLHDLHRPLGDTGLAVSPLGLGTVKFGRDQGVKYPSGFTIPDDREAADLLALARDLGINLIDTAPAYGRSEERLGPLLRGQREHWVIVSKVGEEFVDGQSVFDFSAAHTRRSVERSLKRLETDRIELVLVHSDGNDLDILENSEVYPTLAALKREGLIGAYGLSGKTVEGGLRALREGDCAMVTYNLNERAERPVIEYAAAHAKGILVKKALASGHACLGAGQDPVRASFELVFDQPGVAAAIVGTINPLHLAHNVAMAAQALKKA
B7 was tested, and the binding was “binds”.

B8: HisI (PA5066), phosphoribosyl-AMP cyclohydrolase (protein, UniProt Q9HUB7 1-134)
chain: MKDWLDEIHWNADGLVPAIAQDHETGRVLMMAWMNREALALTASENRAIYWSRSRGKLWRKGEESGHVQKLHELRLDCDADVVILMVEQVGGIACHTGRESCFYRVFENGAWKTVDPVLKDPDAIYEHAGHHHE
In the case of B8, the binding is reported as “binds”.

B9: PurF (PA3108), amidophosphoribosyltransferase (protein, UniProt Q51342 1-501)
chain: MCGIVGIVGKSNVNQALYDALTVLQHRGQDAAGIVTCHDDKLYLRKDNGLVRDVFQQRHMQRLIGSVGIGHVRYPTAGSSSSAEAQPFYVNSPYGITLAHNGNLTNVEQLAKEIYESDLRHVNTNSDSEVLLNVFAHELAVRNKLQPTEEDIFAAVSCVHDRCVGGYAVVAMITGHGIVGFRDPNAIRPIVFGQRHTENGVEYMIASESVALDVLGFTLIRDLAPGEAVYITEEGKLYTRQCAKAPKYAPCIFEHVYLARPDSIMDGISVYKARLRMGEKLADKILRERPDHDIDVVIPIPDTSRTAALELANRLGVKFREGFVKNRYIGRTFIMPGQAARKKSVRQKLNAIELEFRGKNVMLVDDSIVRGTTCKQIIQMAREAGAKNVYFCSAAPAVRYPNVYGIDMPSAHELIAHNRSTEDVSKLIGADWLVYQDLPDLIDAVGGGKIKIDHFDCAVFDGEYVTGDVNEAYLNRIEQARNDATKAKSQAVSAIIDLYND
B9 was tested, and the binding was “binds”.

B10: RpiA (PA0330), ribose 5-phosphate isomerase (protein, UniProt Q9I6G1 1-223)
chain: MNQDQLKQAVAQAAVDHILPHLDSKSIVGVGTGSTANFFIDALARHKAEFDGAVASSEATAKRLKEHGIPVYELNTVSELEFYVDGADESNERLELIKGGGAALTREKIVAAVAKTFICIADASKLVPILGQFPLPVEVIPMARSHVARQLVKLGGDPVYREGVLTDNGNIILDVHNLRIDSPVELEEKINAIVGVVTNGLFAARPADLLLLGTADGVKTLKA
In the case of B10, the binding is reported as “binds”.

B11: PA1585 2-oxoglutarate dehydrogenase (E1 subunit) (protein, UniProt Q9I3D3 1-943)
chain: MHESVMQRMWNSAHLSGGNAAYVEELYELYLHDPNAVPEEWRTYFQKLPADGNPAPDVSHSTVRDHFVLLAKNQRRAQPVSAGSVSSEHEKKQVEVLRLIHAYRLRGHQASTLDPLGLWQRPAPADLSIDHYGLTGADLDTTFRTGELYIGKEEATLREIVDSLKSTYCGTFGAEFMHIVDSEQRKWFLQRLESVRGRPGFSAEARAHLLERLTAAEGLEKYLGTKYPGTKRFGLEGGESLIPMVDEIIQRCGSYGAKEIVIGMAHRGRLNVLVNTLGKNPRDLFDEFEGKKIVELGSGDVKYHQGFSSNVMTSGGEVHLALAFNPSHLEIVSPVVEGSVRARQDRRKDSSGDKVVPISIHGDAAFAGQGVVMETFQMSQTRAYKTGGTIHLVINNQVGFTTSRQDDARSTEYATDVAKMIQAPIFHVNGDDPEAVLFVTQLAVDYRMQFKRDVVIDLVCYRRRGHNEADEPSGTQPLMYQQIAKQRTTRELYADALVNAGVLSAEQVQSKIDDYRDALDNGLHVVKSLVKEPNKELFVDWRPYLGHAWTARHDTRFDLKTLQELSSKMLEVPEGFVVQRQVSKIYEDRQKMAAGGLPINWGFAETLAYATLLFEGHPVRMTGQDVGRGTFSHRHAVLHNQKDDSVYVPLANLFDGQPRLDIYDSFLSEEAVLAFEYGFATTTPNSLVIWEAQFGDFANGAQVVIDQFITSGESKWGRLCGLTMLLPHGYEGQGPEHSSARLERYLQLCAEQNIQVCVPTTPAQVYHMLRRQVIRPLRKPLVVMTPKSLLRHKLAISTLEDLANGSFQTVIPEIDSLDPKKVDRVVLCSGKVYYDLLEKRRAEGREDTAIVRIEQLYPFPEDDLAEVLAPYKNLKHIVWCQEEPMNQGAWFCSQHHMRRVIAAHKKGLNLEYAGREGSAAPACGYASMHAEQQEKLLQDAFTV
With B11 the binding was “binds”.

B12: PA4026 probable acetyltransferase (protein, UniProt Q9HX01 1-153)
chain: MRIVQATLEHLDLLAPLFVKYREFYGMLSYPESSRKFLEKRLRRKESVIYLALADEEDRLLGFCQLYPSFSSLSLKRVWILNDIYVAEEARRQLVADHLLQHAKQMARETHAVRMRVSTSVDNEVAQKVYESIGFREDQEFKNYTLPISDELS
With B12 the binding was “binds”.

B13: PA3645 (3R)-hydroxymyristoyl-[acyl carrier protein] dehydratase (protein, UniProt Q9HXY7 1-146)
chain: MMDINEIREYLPHRYPFLLVDRVVELDIEGKRIRAYKNVSINEPFFNGHFPEHPIMPGVLIIEAMAQAAGILGFKMLDVKPADGTLYYFVGSDKLRFRQPVLPGDQLQLHAKFISVKRSIWKFDCHATVDDKPVCSAEIICAERKL
In the case of B13, the binding is reported as “binds”.
